{
  "source": "patent US20250221936A1",
  "about": "“ENGINEERED HEMICHANNELS, ENGINEERED VESICLES, AND USES THEREOF” (VIRGINIA TECH INTELLECTUAL PROPERTIES, INC., priority 2018, published 2025)",
  "molecular_target": "PKC-ε",
  "experiment": "EDC cross-linking of the kinase reaction mixture, SDS-PAGE and MS/MS",
  "note": "These are yes or no findings as the source states them, for the method shown.",
  "data": [
    {"binder": "RQPKIWFPNRRKPWKKRPRPDDLEI (biotin tag (biotin-alpha CT1) in the cross-linking, SPR and kinase assays)", "note": "[alpha CT1]", "values": [
      {"measurement": "binding", "value": "no binding"}
    ]}
  ]
}
